pIC50: −log10 of the molar value. Structures were worked out from names or drawings and are uncertain.
Legend:
[1] = molecular target: T1, PKA type Iα (RIα/Cα) holoenzyme (Homo sapiens, UniProt P10644); assay: Cook assay, activation (agonist) assay, RIα holoenzyme; type: biochemical; conditions: Table 1 (Example 83), activation screen 10 μM analog
[2] = tested on: Human peripheral T lymphocytes; assay: T lymphocyte proliferation assay (anti-CD3 activated, [3H]thymidine); conditions: Ex vivo testing in T lymphocytes
[3] = molecular target: T1, PKA type Iα (RIα/Cα) holoenzyme; assay: Cook coupled spectrophotometric kinase assay, suppression (antagonist) assay, PKA type Iα; type: biochemical

Nc1ncnc2c1nc(-c1cc[nH]c1)n2[C@@H]1O[C@@H]2CO[P@@](=O)(S)O[C@H]2[C@H]1O
Agonist [1]: no | Agonist properties [2]: No | Antagonist properties ([2]; in presence of agonist Sp-8-Br-cAMPS): Yes | relative potency* ([2]; reference compounds = 1.00): 0.11 | Antagonist ([3]; Table 1 (Example 83), PKA type Iα): yes | relative potency* ([3]; antagonists relative to Rp-8Br-cAMPS): 0.37 | pIC50 ([3]; read-out: half-maximal antagonistic effect (IC50 or EC50), reversal of Sp-8-Br-cAMP-mediated PKA activation, 1 μM Sp-8-Br-cAMPS, 10 nM RIα holoenzyme): 5.44

Source: patent US8153609B2 (priority 2004, dated 2012)
